Measurements as given in US20240400711A1.
These are yes or no findings as the source states them, for the method shown. Some results given as binding are weak or reduced against the parent protein; the word gives no strength.

Amino acid sequences for entries named in this document (tags omitted). Residues count along the entry.
UniProt Q5VAN0, residues 44-301: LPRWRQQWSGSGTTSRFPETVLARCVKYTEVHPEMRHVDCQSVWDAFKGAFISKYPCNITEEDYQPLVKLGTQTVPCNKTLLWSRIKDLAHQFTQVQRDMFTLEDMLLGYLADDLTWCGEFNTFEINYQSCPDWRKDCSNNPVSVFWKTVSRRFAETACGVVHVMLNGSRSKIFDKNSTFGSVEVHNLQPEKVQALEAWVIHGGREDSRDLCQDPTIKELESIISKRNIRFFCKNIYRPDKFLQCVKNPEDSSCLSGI

Key:
[1] = molecular target: cynomolgus CD38 antigen protein (cynomolgus) (UniProt Q5VAN0); assay: ELISA on coated antigen
[2] = molecular target: cynomolgus CD38 antigen protein (cynomolgus) (UniProt Q5VAN0); assay: ELISA on coated cynomolgus CD38 antigen (1 µg/mL), antibody 0.41152-300 µg/ml [panel Cynomolgus CD38]

binding [1]: binds
binding [2]: binds
B1: H2 antibody (antibody, V domains shown)
VH: EVQLQESGAELVRSGASVKMSCKASGYTFTDYNVHWIKQTPGQGLEWIGYFYPRNGATHYNQKFTGKATLTADTSSSTAYIQISSLTSEDSAVYFCARGETPGTFPYWGQGTLVTVSA
VL: DIVLTQSPASLTVSLGQRATISCRASESVDNFGITFMHWYQQKPGQPPKLLIYRASNLESGIPARFSGSGSRTDFTLTIDPVETDDVATYYCQQSSKDPRTFGGGTKLEIK
